# Source: paper PMC8980037
# Results are given in words; binding and its absence hold for the method and conditions named. Some entries that bind do so weakly or less than the wild type.
# T1: RecC subunit of RecBCD (E. coli) (UniProt P07648)
# T1 sequence: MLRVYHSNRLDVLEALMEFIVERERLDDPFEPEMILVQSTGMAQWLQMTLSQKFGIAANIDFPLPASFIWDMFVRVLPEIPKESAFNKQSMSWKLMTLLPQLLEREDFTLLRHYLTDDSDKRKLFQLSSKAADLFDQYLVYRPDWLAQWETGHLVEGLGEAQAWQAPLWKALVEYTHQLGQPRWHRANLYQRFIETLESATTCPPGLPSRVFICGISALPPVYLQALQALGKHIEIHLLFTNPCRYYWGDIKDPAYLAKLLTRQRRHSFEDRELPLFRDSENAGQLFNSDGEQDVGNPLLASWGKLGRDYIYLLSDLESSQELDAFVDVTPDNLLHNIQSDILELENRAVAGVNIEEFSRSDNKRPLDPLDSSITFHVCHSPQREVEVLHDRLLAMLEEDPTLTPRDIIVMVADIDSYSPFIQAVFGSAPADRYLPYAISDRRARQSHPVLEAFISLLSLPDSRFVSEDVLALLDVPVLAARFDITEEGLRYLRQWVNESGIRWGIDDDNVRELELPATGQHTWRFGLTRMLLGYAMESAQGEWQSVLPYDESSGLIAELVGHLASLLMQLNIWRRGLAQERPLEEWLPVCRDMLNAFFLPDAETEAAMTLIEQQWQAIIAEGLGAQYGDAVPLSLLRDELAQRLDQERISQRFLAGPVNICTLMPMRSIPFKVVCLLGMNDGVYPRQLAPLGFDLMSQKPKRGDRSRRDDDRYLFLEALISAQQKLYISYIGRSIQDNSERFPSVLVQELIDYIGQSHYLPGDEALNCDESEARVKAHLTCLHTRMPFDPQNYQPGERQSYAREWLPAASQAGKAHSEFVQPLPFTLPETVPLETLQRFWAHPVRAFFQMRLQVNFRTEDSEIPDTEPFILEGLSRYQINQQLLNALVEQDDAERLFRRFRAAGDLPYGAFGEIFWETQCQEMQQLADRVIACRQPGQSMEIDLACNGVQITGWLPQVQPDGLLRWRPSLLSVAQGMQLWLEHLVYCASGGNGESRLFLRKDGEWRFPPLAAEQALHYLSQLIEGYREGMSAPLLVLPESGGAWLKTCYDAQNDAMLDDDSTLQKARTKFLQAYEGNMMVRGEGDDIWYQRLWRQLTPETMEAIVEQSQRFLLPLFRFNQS
# B1: RecD subunit of RecBCD (protein, UniProt P04993 1-608)
# chain: MKLQKQLLEAVEHKQLRPLDVQFALTVAGDEHPAVTLAAALLSHDAGEGHVCLPLSRLENNEASHPLLATCVSEIGELQNWEECLLASQAVSRGDEPTPMILCGDRLYLNRMWCNERTVARFFNEVNHAIEVDEALLAQTLDKLFPVSDEINWQKVAAAVALTRRISVISGGPGTGKTTTVAKLLAALIQMADGERCRIRLAAPTGKAAARLTESLGKALRQLPLTDEQKKRIPEDASTLHRLLGAQPGSQRLRHHAGNPLHLDVLVVDEASMIDLPMMSRLIDALPDHARVIFLGDRDQLASVEAGAVLGDICAYANAGFTAERARQLSRLTGTHVPAGTGTEAASLRDSLCLLQKSYRFGSDSGIGQLAAAINRGDKTAVKTVFQQDFTDIEKRLLQSGEDYIAMLEEALAGYGRYLDLLQARAEPDLIIQAFNEYQLLCALREGPFGVAGLNERIEQFMQQKRKIHRHPHSRWYEGRPVMIARNDSALGLFNGDIGIALDRGQGTRVWFAMPDGNIKSVQPSRLPEHETTWAMTVHKSQGSEFDHAALILPSQRTPVVTRELVYTAVTRARRRLSLYADERILSAAIATRTERRSGLAALFSSRE
# Target: T1, RecC subunit of RecBCD (E. coli)
# Assay: SEC; RecBCD over-expressed in E. coli and co-purified; last step Superdex 200 in RB (20 mM MOPS pH 7.4, 2 mM MgCl2, 1 mM DTT, 0.1 mM EDTA, 75 NaCl), 4 °C; taken from the monodisperse peak of the heterotrimer; stoichiometry checked by SDS-PAGE
binder,measurement,value
B1,binding,binds
